# Reference: PubChem BioAssay AID445 (National Center for Advancing Translational Sciences (NCATS), 2006)
# This is one part of the list. The main result of the screen is listed elsewhere. These columns were measured beside it and carry no call. Most of these compounds were active or inconclusive in the main read-out, so they are no random draw. Potencies come from curve fits of mixed quality, noted in brackets.
# Experiment: IkB Signaling
# Settings: ABC-DLBCL IkBa-CBG/CBR dual luciferase ratio (green luciferase fused to IkBa over red control in OCI-Ly3 lymphoma cells), 4 h
# Method in brief: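 Curves were fitted separately to fusion (green), unfused (red) and ratio luminescence, then classed by r2, magnitude and activity. Cells: OCI-Ly3, 4 h compound plus doxycycline at 37C; 10 uM MG-132 defined full response.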
# [1] = measured here: control luc red channel unless noted
smiles,measurement,setting,value
CCCCCn1c(-c2cccc(C)c2)nc2ccccc21,AC50,[1],"31.6 µM [falling, single point]"
O=C(Nc1ccc2c(c1)OCO2)c1cc(-c2ccc(Cl)cc2)on1,AC50,[1],"3.16 µM [falling, full curve]"
CSc1cccc(NC(=O)C2CCCN(S(=O)(=O)c3ccc(F)cc3)C2)c1 (stereo not given),AC50,[1],"12.6 µM [falling, partial curve]"
COc1ccc(OC)c(CCNC(=O)C(C)n2c(C)c3cnn(-c4ccccc4)c(=O)c3c2C)c1 (stereo not given),AC50,[1],"20 µM [falling, single point]"
COc1ccccc1CNS(=O)(=O)c1ccc(N2CCCCS2(=O)=O)cc1,AC50,[1],"39.8 µM [falling, single point]"
O=C(CCc1nc2ccccc2s1)N1CCN(S(=O)(=O)c2cccs2)CC1,AC50,[1],"31.6 µM [falling, single point]"
CCn1c(SCc2ccc(F)cc2Cl)nc(=O)c2c(C(=O)OC)cc(C3CC3)nc21,AC50,[1],"39.8 µM [falling, partial curve]"
c1ccc(-c2cc3c(-n4cccc4)ncnc3o2)cc1,AC50,[1],"25.1 µM [falling, partial curve]"
Cc1cc(NC(=O)COc2ccc(N(C)S(=O)(=O)c3ccccc3)cc2)no1,AC50,[1],"39.8 µM [falling, single point]"
CC(C)C1N=C2c3ccccc3N=C(SCC(=O)NCc3ccccc3Cl)N2C1=O (stereo not given),AC50,[1],"12.6 µM [falling, partial curve]"
CCCn1c(=O)c2sccc2n2c(CCCC(=O)Nc3ccc(Oc4ccccc4)cc3)nnc12,AC50,[1],"5.01 µM [falling, full curve]"
CCN(CC)CCCNC(=O)CSc1nc2nc(C)c(Cc3c(F)cccc3Cl)c(C)n2n1,AC50,[1],"39.8 µM [falling, single point]"
NC(=O)c1ccsc1NC(=O)COC(=O)c1ccccc1NCc1ccco1,AC50,[1],"12.6 µM [falling, partial curve]"
COc1ccc(N2CCn3c2nc2c3c(=O)n(CCCc3ccccc3)c(=O)n2C)c(OC)c1,AC50,[1],"3.16 µM [falling, full curve]"
Nc1ncnc2c([C@@H]3O[C@@H](CO)[C@H](O)[C@@H]3O)nsc12,AC50,[1],"0.398 µM [falling, full curve]"
O=c1[nH]c(C2CCCN(S(=O)(=O)c3ccccc3)C2)nc2c1nnn2Cc1ccccc1F (stereo not given),AC50,[1],"20 µM [falling, single point]"
COc1ccc(Cn2ccc3nc(C)c(C(=O)N4CCN(c5ccccc5OC)CC4)cc3c2=O)cc1,AC50,[1],"25.1 µM [falling, partial curve]"
CC1=C(C(N)=O)C(c2cccc(C)c2)n2nc(-c3cccc(C)c3)nc2N1 (stereo not given),AC50,[1],"15.8 µM [falling, partial curve]"
CC(C)c1ccc(OCc2nc(-c3ccccn3)no2)c(Br)c1,AC50,[1],"12.6 µM [falling, partial curve]"
CC(C)(C)OC(=O)N1CCC(c2c(C(=O)N3CCN(c4ccccn4)CC3)cnn2-c2ccccc2Cl)CC1,AC50,[1],"15.8 µM [falling, partial curve]"
CCOCCCNC(=O)c1cn(CC)c2ccc(S(=O)(=O)N3CCc4ccccc4C3)cc2c1=O,AC50,[1],"31.6 µM [falling, single point]"
CCOC(=O)c1[nH]c(C)c(CCC(=O)N2CCN(c3cccc(C)c3C)CC2)c1C,AC50,[1],"15.8 µM [falling, partial curve]"
Cc1ccc2nc(-c3ccncc3)c(Nc3ccc(C(C)C)cc3)n2c1,AC50,[1],"31.6 µM [falling, single point]"
Cc1ccc(CSc2nc(-c3ccc(C(C)(C)C)cc3)nc3cc(=O)[nH]n23)cc1,AC50,[1],"31.6 µM [falling, single point]"
N#CC1=C(N)N2C(=C(C#N)C13CCCCC3)SC1CCCCC12O (stereo not given),AC50,[1],"20 µM [falling, partial curve, poor fit]"
COc1ccc(OC)c(CNC(=O)c2c(C)oc3ncn(C)c(=O)c23)c1,AC50,[1],"20 µM [falling, single point]"
O=C(c1ccc2c(c1)CCN2S(=O)(=O)c1ccc(Cl)cc1)N1CCN(c2ccccc2)CC1,AC50,[1],"12.6 µM [falling, single point]"
CCOC(=O)c1c(C)oc2c1c(C(c1ccncc1)N1CCOCC1)c(O)c1ccccc12 (stereo not given),AC50,[1],"31.6 µM [falling, single point]"
CC(=O)Nc1ccc(S(=O)(=O)NCc2cccn2Cc2cccc(C)c2)cc1,AC50,[1],"10 µM [falling, partial curve]"
CCOc1ccc(CN2C(=O)c3ccccc3Sc3ccc(C(=O)OC)cc32)cc1,AC50,[1],"12.6 µM [falling, partial curve]"
O=S(=O)(Nn1cnnc1)c1ccccc1Cl,AC50,[1],"1.58 µM [falling, partial curve]"
COc1ccc(CNC(=O)c2ccc3c(c2)N(Cc2ccccc2C)C(=O)c2ccccc2S3=O)cc1 (stereo not given),AC50,[1],"6.31 µM [falling, partial curve]"
Nc1ccccc1N,AC50,[1],"15.8 µM [falling, partial curve]"
COc1ccccc1-n1c(-c2cccnc2)n[nH]c1=S,AC50,[1],"5.01 µM [falling, full curve, poor fit]"
COc1ccc(Cl)cc1NC(=O)CCN1C(=O)c2ccccc2Sc2ncccc21,AC50,[1],"12.6 µM [falling, partial curve]"
CCC(=O)Nc1nc2ccccc2n1Cc1ccccc1,AC50,[1],"31.6 µM [rising, partial curve] [measured here: IkB-luc green channel]"
CC(C)C(=O)N1c2nc(C(C)C)nn2C2(CCCCC2)[C@@H]2CCCC[C@@H]21,AC50,[1],"31.6 µM [falling, single point]"
Cc1cc(C)c2c(=O)cc(CSc3nnc(-c4ccccc4)n3C)[nH]c2c1,AC50,[1],"39.8 µM [falling, single point]"
Cc1ccc(Nc2nc3ccccc3c3nnc(C)n23)cc1Cl,AC50,[1],"39.8 µM [falling, single point]"
Cc1ccc(CNc2ccc(O)cc2)cc1,AC50,[1],"15.8 µM [falling, partial curve]"
CCn1c(SCC(=O)c2cc(C)n(CC3CCCO3)c2C)nc2ccccc21 (stereo not given),AC50,[1],"12.6 µM [falling, partial curve]"
O=C(Nc1nc2c(s1)CCCC2)c1cccs1,AC50,[1],"3.98 µM [falling, full curve]"
COC(=O)c1ccccc1NC(=O)Nc1cccs1,AC50,[1],"20 µM [falling, partial curve]"
CCCC(CCC)C(=O)Nc1cccc(-c2nc3cccnc3s2)c1,AC50,[1],"10 µM [falling, partial curve]"
CC(=O)Oc1cc2c(C(=O)NCCCN3CCOCC3)c(C)oc2c2ccccc12,AC50,[1],"12.6 µM [falling, partial curve]"
CC(=O)Nc1ccc(NS(=O)(=O)c2ccc3[nH]c4c(c3c2)CCCCC4)cc1,AC50,[1],"5.01 µM [falling, single point]"
COc1ccc(CCN2C(=O)N(c3ccc(F)cc3)C(=O)C2CC(=O)Nc2ccc(OC)cc2)cc1 (stereo not given),AC50,[1],"25.1 µM [falling, single point]"
NC1=CC(=O)c2cccc3cccc1c23,AC50,[1],"39.8 µM [rising, single point] [measured here: IkB-luc green channel]"
CCCCC1C(=O)N(c2ccccc2)N(c2ccccc2)C1=O,AC50,measured here: IkB-luc green channel,"25.1 µM [rising, partial curve]"
same,AC50,measured here: control luc red channel,"15.8 µM [rising, partial curve]"
Cc1ccc(-n2nc3c(N4CCC(C(=O)NCCc5ccccc5C)CC4)nnc(C)c3c2C)cc1,AC50,[1],"1.58 µM [falling, partial curve]"
CN(C)c1cc2c(cc1NC(=O)c1ccc(F)cc1)n(C)c(=O)n2C,AC50,[1],"3.16 µM [rising, partial curve]"
CCOc1ccc(CNC(=O)c2ccc(NC(=O)N3CCSc4ncccc43)cc2)cc1OC,AC50,[1],"3.98 µM [falling, partial curve]"
CCc1ccc(-c2cc(C)no2)cc1S(=O)(=O)Nc1ccc(C)cn1,AC50,[1],"0.158 µM [rising, full curve]"
Cc1cccc(-c2nnn3c2nc(NCc2ccccc2)c2ccccc23)c1,AC50,[1],"0.631 µM [falling, full curve]"
Cc1cc2c(cc(C(=O)OCC(=O)NCc3cccs3)n2C(C)C)o1,AC50,[1],"39.8 µM [falling, single point]"
CC(=O)Nc1nc2ccccc2n1CCOc1ccccc1,AC50,[1],"39.8 µM [rising, single point] [measured here: IkB-luc green channel]"
CNC(=O)C1CCN(Cc2cc3ccccc3n2Cc2cccc(C)c2)CC1,AC50,[1],"12.6 µM [falling, partial curve]"
CCOc1ccc(CCNC(=O)c2ccc(CS(=O)(=O)c3ccccc3C)o2)cc1OCC,AC50,[1],"15.8 µM [falling, single point]"
CSCCC(NS(=O)(=O)c1cccs1)C(=O)Nc1ccc(C)c(Cl)c1 (stereo not given),AC50,[1],"31.6 µM [falling, single point]"
COC(=O)c1ccc(Cn2c(SCC(=O)NCc3ccccc3)nc3ccccc32)cc1,AC50,[1],"25.1 µM [falling, partial curve]"
CCc1ccccc1Nc1ncnc2c1cnn2-c1ccc(Cl)cc1,AC50,[1],"10 µM [falling, partial curve]"
CC(=O)c1ccc(NC(=O)CSc2nnc(NC(=O)Nc3ccccc3)s2)cc1,AC50,[1],"0.1 µM [rising, full curve]"
COc1ccc(OC)c(NC(=O)Cc2c(C)n(C(=O)c3ccc(Cl)cc3)c3ccc(OC)cc23)c1,AC50,[1],"6.31 µM [falling, partial curve]"
CC(=O)c1cccc(NC(=O)CN2C(=O)c3cccnc3Sc3ccccc32)c1,AC50,[1],"15.8 µM [falling, partial curve]"

# A second format for some results above.
smiles	measurement	setting	value
COc1ccccc1CNS(=O)(=O)c1ccc(N2CCCCS2(=O)=O)cc1	AC50	[1]	39.8 µM [falling, single point]
CCCn1c(=O)c2sccc2n2c(CCCC(=O)Nc3ccc(Oc4ccccc4)cc3)nnc12	AC50	[1]	5.01 µM [falling, full curve]
Cc1ccc2nc(-c3ccncc3)c(Nc3ccc(C(C)C)cc3)n2c1	AC50	[1]	31.6 µM [falling, single point]
CN(C)c1cc2c(cc1NC(=O)c1ccc(F)cc1)n(C)c(=O)n2C	AC50	[1]	3.16 µM [rising, partial curve]
